Experimental data as given in PubChem BioAssay AID540303 (National Center for Advancing Translational Sciences (NCATS), 2011).
In all, about 330,000 compounds went through this assay and about 1,000 (0.3%) were called active. The inconclusive results got no clear call from the source; some entries with a clear call stand among them for comparison. Calls come from the whole dose curve; as a rule, active = well fitted inhibition curve with a large enough effect; inconclusive = small, poorly fitted or top-dose-only effect; inactive = no such curve, though single readings can be large or run the other way; tested in mouse RAW 264.7 cells. Potencies beside an inconclusive call are fits to weak or partial responses and may not hold up.
Potency is the fitted concentration of half-maximal effect.

Assay: qHTS for Inhibitors of Cell Surface uPA Generation; note: nearly all actives have a fitted effect of over 55% in size
Conditions: cell surface uPA generation assay; series mostly up to 38.3 µM
Outline: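 ATP-Lite luminescence in RAW 264.7 cells after 24 h of exposure to compound, tested up to 38.3 uM final in 1:5 steps. Raised ATP reflects inhibition of uPA-dependent LF delivery to the cytoplasm.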
With `O=C(O)c1cc(-c2cccnc2)nc2ccccc12` the Potency was “inactive”.
In the case of `Cc1ccc(NC(=O)CCN2C(=O)C3CC=CCC3C2=O)cc1Cl` (stereo not drawn), the Potency is reported as inconclusive: 2.82 µM [inhibitor, single point].
In the case of `CCOC(=O)/C(C#N)=C1/C=C(C)c2ccccc2N1`, the Potency is reported as inconclusive: 7.08 µM [inhibitor, partial curve, poor fit].
With `Cc1ccc(Cn2ccsc2=NC(=O)CCl)cc1` the Potency was active: 2 µM.
In the case of `C/C(=N\NC(=S)Nc1ccc(C)cc1)c1cccc(N)c1`, the Potency is reported as “inactive”.
For `COc1ccc(N2CCN(CCCNC(=O)c3ccc(CS(=O)(=O)c4ccc(Cl)cc4)o3)CC2)cc1`, the Potency was inconclusive: 7.94 µM [inhibitor, single point].
With `Cc1nc2sc(C(c3ccco3)N3CCN(C(c4ccccc4)c4ccccc4)CC3)c(O)n2n1` (stereo not drawn) the Potency was inconclusive: 12.6 µM [inhibitor, single point].
In the case of `CCCCc1c(O)nc(SCC(=O)Nc2cccc3ccccc23)n(-c2ccccc2OC)c1=O`, the Potency is reported as inconclusive: 7.94 µM [inhibitor, partial curve].
For `O=C(c1ccc(Cl)cc1)C1CCN(C(=O)c2ccc(F)cc2)CC1`, the Potency was inconclusive: 14.1 µM [inhibitor, partial curve, poor fit].
In the case of `CN1CCCC1CCNc1ccc2c(=O)c3ccccc3oc2c1` (stereo not drawn), the Potency is reported as inconclusive: 8.91 µM [inhibitor, partial curve].
With `Cc1ccc2c(c1)N(CC(=O)NCCC1=CCCCC1)C(=O)c1cccnc1O2` the Potency was “inactive”.
In the case of `CCn1cc(C(=O)NCC(OC)OC)c(=O)c2cc(S(=O)(=O)N(C)C3CCCCC3)ccc21`, the Potency is reported as inconclusive: 2.82 µM [inhibitor, partial curve, poor fit].
In the case of `O=C(Nc1cccnc1Cl)c1cc2ccccc2o1`, the Potency is reported as inconclusive: 12.6 µM [inhibitor, single point].
With `O=C(O)CSCC(=O)NCc1csc2ccc(Cl)cc12` the Potency was “inactive”.
For `COc1ccc(-c2cc(=O)oc3c(O)c(O)ccc23)cc1`, the Potency was “inactive”.
For `O=[N+]([O-])c1ccc(N/N=C/c2cccc(O)c2O)c(S(=O)(=O)N2CCOCC2)c1`, the Potency was inconclusive: 11.2 µM [inhibitor, single point].
In the case of `O=C(Sc1nnc(-c2ccccc2)o1)N1c2ccccc2Sc2ccccc21`, the Potency is reported as inconclusive: 11.2 µM [inhibitor, single point].
With `CCCCNc1ncnc2c1cnn2-c1ccc(Cl)cc1` the Potency was inconclusive: 5.62 µM [inhibitor, partial curve, poor fit].
With `CCC(C)(C)c1ccc(OCCCC[n+]2ccc(C)cc2)c(C(C)(C)CC)c1` the Potency was inconclusive: 8.91 µM [inhibitor, partial curve, poor fit].
With `c1ccc(-n2nnnc2-c2cnc(-c3ccncc3)nc2-c2cccs2)cc1` the Potency was “inactive”.
For `CC(=O)C12CCCCC1CC1[C@@H]3CC(C)C4=CC(=O)CC[C@]4(C)C3CC[C@@]12C` (stereo partly drawn), the Potency was “inactive”.
With `CN(CC(=O)Nc1ccc(N2CCOCC2)cc1)C(=O)c1cc(S(=O)(=O)N(C)C)ccc1Cl` the Potency was inconclusive: 11.2 µM [inhibitor, partial curve, poor fit].
For `Cn1c(=O)nc2n(Cc3ccccc3)c3cccc(Cl)c3cc-2c1=O`, the Potency was “inactive”.
With `COc1ccccc1N(C)S(=O)(=O)c1ccc(C(=O)OCC(=O)Nc2ccc(C(N)=O)cc2)cc1` the Potency was inconclusive: 12.6 µM [inhibitor, single point].
In the case of `O=C(Nc1ccc(OC(F)(F)F)cc1)C1CCCN(S(=O)(=O)c2cccnc2)C1` (stereo not drawn), the Potency is reported as “inactive”.
For `COc1ccc(-n2nc(C(=O)NCC(=O)NCCc3ccc(OC)c(OC)c3)c3ccccc3c2=O)cc1Cl`, the Potency was “inactive”.
For `Clc1ccc(C2CC(c3ccccc3)Nc3ncnn32)cc1` (stereo not drawn), the Potency was inconclusive: 28.2 µM [inhibitor, partial curve, poor fit].
In the case of `O=C(CNC(=O)c1cccc(F)c1)N/N=C/c1cc(Br)ccc1OC(=O)/C=C/c1ccco1`, the Potency is reported as inconclusive: 5.01 µM [inhibitor, partial curve, poor fit].
For `Cc1cc(C)c(C)c(C(=O)c2ccccc2C(=O)O)c1C`, the Potency was “inactive”.
In the case of `CN1C=C/C(=C\c2cc[n+](C)c3ccccc23)c2ccccc21`, the Potency is reported as inconclusive: 7.08 µM [inhibitor, partial curve, poor fit].
With `C/C(CC(=O)Nc1ccc(Cl)cc1Cl)=N\NC(=O)c1cnccn1` the Potency was “inactive”.
For `CCCc1nc(SCC(=O)NCc2ccco2)c2c(=O)n(C)c(=O)n(C)c2n1`, the Potency was inconclusive: 8.91 µM [inhibitor, partial curve].
With `Cc1ccc(-n2nc3c(=O)n(C(C)C(=O)NCCC4=CCCCC4)nc(C)c3c2C)cc1` (stereo not drawn) the Potency was inconclusive: 10 µM [inhibitor, single point].
With `O=C(N/N=C/c1ccccc1)c1ccc2c(c1)OCO2` the Potency was inconclusive: 5.01 µM [inhibitor, partial curve, poor fit].
With `CCc1nc(-c2cc3ccc(C)cc3[nH]c2=O)no1` the Potency was “inactive”.
In the case of `O=C(COC(=O)/C=C/c1cccc(C(F)(F)F)c1)NC(=O)NCc1ccccc1`, the Potency is reported as “inactive”.
With `CC1(C)Cc2c(sc3nc4n(-c5ccccc5)c(=O)c(CCC(=O)O)nn4c(=O)c23)CO1` the Potency was “inactive”.
With `O=C(COC(=O)/C=C/c1ccc(OC(F)F)cc1)NCc1cccs1` the Potency was “inactive”.
With `Fc1cccc(/C=N/Nc2nncc3ccccc23)c1` the Potency was inconclusive: 1.58 µM [inhibitor, partial curve, poor fit].
For `COc1ccc(CCC2(C)NC(=O)N(C(C)C(=O)Nc3ccccc3F)C2=O)cc1` (stereo not drawn), the Potency was “inactive”.
With `O=C1C(=O)N(CCS(=O)(=O)c2ccccc2)c2ccc(F)cc21` the Potency was inconclusive: 28.2 µM [inhibitor, single point].
In the case of `O=C(O)CCn1cc(-c2ccc(Cl)cc2)nc1-c1ccncc1`, the Potency is reported as inconclusive: 3.55 µM [inhibitor, partial curve, poor fit].
In the case of `CCN(CC)CCNC(=O)c1ccc(NC(=O)c2cccc(S(=O)(=O)N(C)C3CCCCC3)c2)cc1`, the Potency is reported as inconclusive: 8.91 µM [inhibitor, single point].
For `Cc1c(Cl)cccc1NC(=O)c1ncn[nH]1`, the Potency was inconclusive: 1 µM [inhibitor, partial curve, poor fit].
With `Cc1ccc2[nH]c(-c3cccc(F)c3)cc(=O)c2c1` the Potency was inconclusive: 0.0562 µM [inhibitor, full curve, poor fit].
With `COc1ccc(NC(=S)NC(=O)c2cc3ccccc3o2)c(OC)c1` the Potency was “inactive”.
With `CN(C)S(=O)(=O)c1ccc(C(=O)Nc2nnc(-c3ccc4c(c3)CCCC4)o2)cc1` the Potency was active: 4.47 µM.
For `CC(C)(C)c1cc(C(=O)Nc2ccc(F)cc2)n(Cc2ccc(F)cc2)n1`, the Potency was inconclusive: 12.6 µM [inhibitor, single point].
For `Cc1cc(=O)[nH]c(SCC(=O)Nc2ccc(Br)cc2)c1C#N`, the Potency was “inactive”.
For `Cc1cccc(N(C)c2cc(C)nc3ncnn23)c1`, the Potency was inconclusive: 11.2 µM [inhibitor, single point].
With `CCOC(=O)CSC1=C(C#N)C(c2ccc(C)o2)CC(=O)N1` (stereo not drawn) the Potency was inconclusive: 0.398 µM [inhibitor, full curve, poor fit].
In the case of `O=[N+]([O-])c1ccccc1/C=C\C=N\N1CCN(c2ccccc2)CC1`, the Potency is reported as inconclusive: 1.12 µM [inhibitor, partial curve, poor fit].
For `CCO[C@@H]1OC(C(=O)NCc2nc3ccccc3[nH]2)=C[C@H](C2CC2)[C@H]1CCCO`, the Potency was active: 4.47 µM.
For `Cc1ccc(Cn2nnc3c(=O)n(CC(=O)NCc4ccccc4)cnc32)cc1`, the Potency was inconclusive: 12.6 µM [inhibitor, partial curve, poor fit].
In the case of `Cc1ccc(S(=O)(=O)N2CCCCC2CCNC(=O)C(=O)NCc2cccnc2)cc1` (stereo not drawn), the Potency is reported as inconclusive: 12.6 µM [inhibitor, partial curve, poor fit].
For `CCOC(OCC)c1cn(Cc2ccc(C(=O)c3ccccc3)cc2)nn1`, the Potency was inconclusive: 7.08 µM [inhibitor, partial curve, poor fit].
For `O=C(Nc1ccc(C(=O)N2CCCCC2)cc1)Nc1cccc(Cl)c1`, the Potency was inconclusive: 12.6 µM [inhibitor, single point].
For `O=C(Nc1nc2ccc(Cl)cc2s1)c1cccc(N2C(=O)CCC2=O)c1`, the Potency was “inactive”.
For `Cc1cc(N/N=C/c2ccc3c(c2)OCO3)nc2ccccc12`, the Potency was “inactive”.
In the case of `CCCC(=O)N1CCN(c2nc3ccc(Cl)cc3s2)CC1`, the Potency is reported as inconclusive: 6.31 µM [inhibitor, partial curve, poor fit].
For `COc1ccc(C(=O)OCCc2ccc(O)cc2)cc1`, the Potency was inconclusive: 6.31 µM [inhibitor, partial curve, poor fit].
For `CCCn1c2ccccc2c2cnn(CC(=O)NCCCN3C(C)CCCC3C)c(=O)c21` (stereo not drawn), the Potency was inconclusive: 12.6 µM [inhibitor, single point].
In the case of `CC(=O)[C@H]1CC[C@H]2[C@@H]3C=CC4=CC(=O)CC[C@@]4(C)[C@@H]3CC[C@]12C`, the Potency is reported as inconclusive: 12.6 µM [inhibitor, single point].
For `COc1cc(S(=O)(=O)N2CCN(Cc3ccc4c(c3)OCO4)CC2)c(C)cc1C`, the Potency was “inactive”.
For `O=C(CCN1C(=O)/C(=C/c2ccccc2F)SC1=S)NCCc1ccc(O)cc1`, the Potency was inconclusive: 7.94 µM [inhibitor, single point].
In the case of `CCOc1ccccc1CNc1ncnc2ccc(-c3c(C)noc3C)cc12`, the Potency is reported as inconclusive: 25.1 µM [inhibitor, single point].
For `CCN(C(=O)COC(=O)c1ccc(OC)c(S(=O)(=O)N2CCCc3ccccc32)c1)C1CCS(=O)(=O)C1` (stereo not drawn), the Potency was inconclusive: 3.55 µM [inhibitor, full curve, poor fit].
